Results published in paper PMC10274954.
These are yes or no findings as the source states them, for the method shown. Binding seen in cells or lysates may run through a third protein. Some entries that bind do so weakly or less than the wild type.

By UniProt entry, the sequences of proteins in these tests, tags left out.
UniProt P62136, whole entry: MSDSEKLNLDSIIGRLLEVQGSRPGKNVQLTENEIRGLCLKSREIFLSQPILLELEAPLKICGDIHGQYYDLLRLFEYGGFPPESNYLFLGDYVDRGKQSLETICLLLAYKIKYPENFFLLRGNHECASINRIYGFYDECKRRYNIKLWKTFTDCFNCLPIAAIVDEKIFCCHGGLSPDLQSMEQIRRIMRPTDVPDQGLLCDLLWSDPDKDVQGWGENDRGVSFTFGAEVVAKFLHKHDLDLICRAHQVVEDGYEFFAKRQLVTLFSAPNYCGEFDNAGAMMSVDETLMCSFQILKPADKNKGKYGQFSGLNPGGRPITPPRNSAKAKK

Legend:
[1] = target: Protein phosphatase-1 (PP1) fused to LgBiT (UniProt P62136); assay: split reporter
[2] = target: V5-tagged PP1 alpha (UniProt P62136); assay: co-IP

Which binding [1] does the source give for “Ebola virus nucleoprotein (NP), wild type, split NanoBiT fusion (from UniProt P18272 1-739)” here?
Its binding is “binds”.

“Flag-tagged NP, wild type (co-immunoprecipitation) (from UniProt P18272 1-739)” was tested. Which binding [2] did it give?
Its binding is “binds”.
